Measured values taken from ChEMBL document CHEMBL1155219, “Rapid generation of a high quality lead for transforming growth factor-beta (TGF-beta) type I receptor (ALK5)” (J Med Chem, 2009).
In brackets after ≈: the same amount, converted by molar mass.

Assays:
Rattus norvegicus [1] = test: Clearance in Han Wistar rat at 5 umol/kg, po; settings: in vivo
[2] = Aqueous solubility in phosphate buffer of pH 7.4
Rattus norvegicus [3] = species: Rattus norvegicus; settings: Han Wistar, in vivo, po, 5 umol/kg

COc1cc(Nc2cc(Oc3cc(C)c(C)nc3-c3ccccn3)ccn2)cc(OC)c1OC
CL (Rattus norvegicus [1]): 20 mL/min/kg | solubility [2]: 52 µM (≈ 23.8 µg/mL) | AUC (Rattus norvegicus [3]): 0.15 µM·h
